The results in this text go back to PubChem BioAssay AID330 (DTP/NCI, 2004).

Each structure is given as a SMILES string. The list does not hold the whole screen: it is rich in T/C values a quarter to a half above the control, in often repeated tests (any T/C) and in doses without a T/C. Further doses and runs are listed elsewhere. T/C is the treated group as % of the vehicle group. Some entries give survivors of the animals treated and no T/C: the source files T/C as zero there, which appears to mark a toxic dose or a test without result, not a measured value. Some survivor counts are full or nearly so, which does not show that the dose was tolerated: survival well below the control is almost never listed, so the zero probably covers shortened survival too. Survivors were counted at the toxicity check, usually on the fifth day, unless a day is given; later deaths do not show. Schedule codes are those of the source, taken here to give the interval after Q, in days (D) or hours (H), and the number of doses after X. Some entries were tested several times; the results are listed from low to high. For survival time, this PubChem deposit counts one and a half times the control or more as active, and values a quarter to a half above the control carry no call in these data; other NCI protocols may use other cut-offs. Some T/C values carry the count of animals alive at the toxicity check (mostly the fifth day); without a count, all were alive then.

The test system of the assay is P388 leukemia ip, CD2F1 mice, survival T/C. Description: NCI In Vivo Anticancer Drug Screen. Data for tumor model P388 Leukemia (intraperitoneal) in CD2F1 (CDF1) mice. The following applies: T/C endpoint: median survival time, higher T/C = longer survival.
Setting [1] is: dose: 100.0 mg/kg/injection, schedule: Q01DX001 (ip), vehicle: Klucel (hydroxypropylcellulose) (HPC).
Setting [2] is: dose: 25.0 mg/kg/injection, schedule: Q04DX003 (ip), vehicle: Klucel (hydroxypropylcellulose) (HPC).
Setting [3] is: dose: 400.0 mg/kg/injection, schedule: Q04DX003 (ip), vehicle: Klucel (hydroxypropylcellulose) (HPC).
Setting [4] is: dose: 200.0 mg/kg/injection, schedule: Q01DX005 (ip), vehicle: saline with Tween-80.
[5] abbreviates: dose: 60.0 mg/kg/injection, schedule: Q01DX005 (ip), vehicle: saline with Tween-80.
The mark [6] stands for this setting: dose: 120.0 mg/kg/injection, schedule: Q01DX005 (ip), vehicle: saline with Tween-80.
The mark [7] stands for this setting: dose: 240.0 mg/kg/injection, schedule: Q01DX005 (ip), vehicle: saline with Tween-80.
The mark [8] stands for this setting: dose: 200.0 mg/kg/injection, schedule: Q01DX009 (ip), vehicle: saline with Tween-80.

As to `COc1cc2cc[n+](C)cc2cc1OC`, the T/C (dose: 50.0 mg/kg/injection, schedule: Q01DX009 (ip), vehicle: water) was 125 and 128 % of control.

`CN1CCN(C(=O)CCSc2nc(-c3ccccc3)c(-c3ccccc3)o2)CC1`: where the note is “dose: 200.0 mg/kg/injection, schedule: Q01DX009 (ip), vehicle: saline”, the survivor count is recorded as 0 of 6.

As for `O=C(/C=C\c1ccc([N+](=O)[O-])cc1)c1ccccc(=O)c1O`, the survivor count is recorded as 6 of 6 under setting [1]; 4 of 6 (dose: 200.0 mg/kg/injection, schedule: Q01DX001 (ip), vehicle: Klucel (hydroxypropylcellulose) (HPC)); 0 of 6 (dose: 400.0 mg/kg/injection, schedule: Q01DX001 (ip), vehicle: Klucel (hydroxypropylcellulose) (HPC)).

On to `CCCCCCCCCCCCCCCCCCCCCCCCC(O)C(=O)NC(CO)C(O)C(O)CCCCCCCCCCCCCC` (stereo not given), for which the survivor count runs as follows: (dose: 12.5 mg/kg/injection, schedule: Q04DX003 (ip), vehicle: saline with Tween-80) 6 of 6; (dose: 25.0 mg/kg/injection, schedule: Q04DX003 (ip), vehicle: saline with Tween-80) 6 of 6; (dose: 50.0 mg/kg/injection, schedule: Q04DX003 (ip), vehicle: saline with Tween-80) 6 of 6.

On to `CC1(C)CC[C@]2(C(=O)O)CC[C@]3(C)C(=CC[C@@H]4[C@@]5(C)C[C@H](O)[C@H](O)[C@@](C)(C(=O)O)[C@@H]5CC[C@]43C)[C@@H]2C1`, for which the survivor count runs as follows: (dose: 17.0 mg/kg/injection, schedule: Q01DX005 (ip), vehicle: Klucel (hydroxypropylcellulose) (HPC)) 6 of 6; (dose: 34.0 mg/kg/injection, schedule: Q01DX005 (ip), vehicle: Klucel (hydroxypropylcellulose) (HPC)) 6 of 6; (dose: 68.0 mg/kg/injection, schedule: Q01DX005 (ip), vehicle: Klucel (hydroxypropylcellulose) (HPC)) 4 of 6; (dose: 136.0 mg/kg/injection, schedule: Q01DX005 (ip), vehicle: Klucel (hydroxypropylcellulose) (HPC)) 0 of 6.

As to `CC([NH-])C[NH-].O=[N+]([O-])O.O=[N+]([O-])O.[Pt+2]` (stereo not given), the T/C runs as follows: (dose: 3.12 mg/kg/injection, schedule: Q04DX002 (ip), vehicle: saline) 127 and 130 % of control; (dose: 6.25 mg/kg/injection, schedule: Q04DX002 (ip), vehicle: saline) 147 % of control.

Consider `O=C1C=C(SCCCC(=O)N2CCOCC2)C(=O)c2ccccc21`, for which the survivor count under setting [2] was 5 of 6; the survivor count (dose: 100.0 mg/kg/injection, schedule: Q04DX003 (ip), vehicle: Klucel (hydroxypropylcellulose) (HPC)) is given as 0 of 5; the survivor count (dose: 200.0 mg/kg/injection, schedule: Q04DX003 (ip), vehicle: Klucel (hydroxypropylcellulose) (HPC)) was 0 of 5; the survivor count under setting [3] is recorded as 0 of 5.

Take `CC[N+](CC)=c1ccc2nc3c(cc(NCc4ccccc4)c4ccccc43)oc-2c1`: the survivor count by setting is: (dose: 100.0 mg/kg/injection, schedule: Q01DX005 (ip), vehicle: saline with Tween-80) 4 of 5; under setting [4], 1 of 5.

Consider `Cc1cc(=O)n(-c2cccc3ccccc23)c(C)c1C(=O)O`, for which the survivor count under setting [4] was 4 of 5.

With `O=[N+]([O-])c1ccc(N=Nc2ccc(NNc3ccc([N+](=O)[O-])cn3)c3cc4ccccc4cc23)nc1`, under setting [4], the survivor count was 0 of 6.

For the molecule `c1ccc2cc(OCC3CO3)c(OCC3CO3)cc2c1` (stereo not given), the T/C by setting is: (dose: 30.0 mg/kg/injection, schedule: Q01DX005 (ip), vehicle: saline with Tween-80) 136 % of control; under setting [5], 141 % of control.

For `Oc1cccc(NCNC2Nc3ccccc3N2)c1`, the survivor count by setting is: under setting [5], 6 of 6; under setting [6], 6 of 6; under setting [7], 6 of 6.

Regarding `CCOC(=O)Nc1cc2c(c(N)n1)N=C(c1ccc(OC)cc1)CN2`, the T/C by setting is: (dose: 3.0 mg/kg/injection, schedule: Q01DX009 (ip), vehicle: Klucel (hydroxypropylcellulose) (HPC)) 135 % of control; (dose: 6.0 mg/kg/injection, schedule: Q01DX009 (ip), vehicle: Klucel (hydroxypropylcellulose) (HPC)) 125 and 131 % of control [5 of 6 alive]; (dose: 12.0 mg/kg/injection, schedule: Q04DX003 (ip), vehicle: Klucel (hydroxypropylcellulose) (HPC)) 129 % of control; (dose: 12.5 mg/kg/injection, schedule: Q01DX001 (ip), vehicle: Klucel (hydroxypropylcellulose) (HPC)) 125 % of control; (dose: 25.0 mg/kg/injection, schedule: Q01DX001 (ip), vehicle: Klucel (hydroxypropylcellulose) (HPC)) 146 % of control. In addition, the survivor count (dose: 12.0 mg/kg/injection, schedule: Q01DX009 (ip), vehicle: Klucel (hydroxypropylcellulose) (HPC)) was 5 of 5 and 6 of 6; the survivor count (dose: 25.0 mg/kg/injection, schedule: Q01DX009 (ip), vehicle: Klucel (hydroxypropylcellulose) (HPC)) was 0 of 6; the survivor count under setting [2] is recorded as 4 of 6; the survivor count (dose: 50.0 mg/kg/injection, schedule: Q01DX001 (ip), vehicle: Klucel (hydroxypropylcellulose) (HPC)) was 1 of 6 and 2 of 6; the survivor count (dose: 50.0 mg/kg/injection, schedule: Q04DX003 (ip), vehicle: Klucel (hydroxypropylcellulose) (HPC)) is 2 of 6 and 3 of 6; the survivor count under setting [1] was 0 of 6.

With `Cn1c(C(C)(C)OC(=O)Oc2ccccc2)cnc1[N+](=O)[O-]`, for the setting “dose: 50.0 mg/kg/injection, schedule: Q01DX009 (ip), vehicle: Klucel (hydroxypropylcellulose) (HPC)”, the survivor count is 6 of 6.

`CCCCCCCOCC(=O)O`: the survivor count under setting [8] was 1 of 6.

With `NC(=S)N/N=C\C=N\Nc1ccccc1`, the survivor count under setting [3] is on record as 1 of 6.

As for `C1=NC(C2CC2)c2ccc3c([nH]c4ccccc43)c2N1` (stereo not given), the survivor count (dose: 400.0 mg/kg/injection, schedule: Q04DX002 (ip), vehicle: Klucel (hydroxypropylcellulose) (HPC)) is on record as 0 of 5.

Regarding `COc1cc(Br)c(-c2coc3c(OC)c(OC)ccc3c2=O)cc1OC`, the survivor count was 6 of 6 under setting [6] and 6 of 6 under setting [7].

On to `COc1ccc(/C=N/N=c2/sc3ccccc3n2CC(=O)O)cc1`, for which the survivor count (dose: 400.0 mg/kg/injection, schedule: Q01DX001 (ip), vehicle: saline with Tween-80) was 6 of 6.

As for `CCOC1=N[C@H](C)[C@H](C)N1`, where the note is “dose: 200.0 mg/kg/injection, schedule: Q01DX005 (ip), vehicle: saline”, the survivor count is given as 0 of 6.

With `O=S(=O)(OCCCl)c1c(F)c(F)c(F)c(F)c1F`, the survivor count is, setting by setting: (dose: 50.0 mg/kg/injection, schedule: Q01DX009 (ip), vehicle: saline with Tween-80) 5 of 6; (dose: 100.0 mg/kg/injection, schedule: Q01DX009 (ip), vehicle: saline with Tween-80) 4 of 6; under setting [8], 0 of 6.

Turning to `NC(=S)N/N=C/c1ccc(OC(=O)COc2ccc(Cl)cc2)cn1`, the T/C was 137 % of control (dose: 6.25 mg/kg/injection, schedule: Q01DX009 (ip), vehicle: saline with Tween-80) and 148 % of control (dose: 25.0 mg/kg/injection, schedule: Q01DX009 (ip), vehicle: saline with Tween-80). The survivor count under setting [8] is recorded as 6 of 6 and the survivor count (dose: 400.0 mg/kg/injection, schedule: Q01DX009 (ip), vehicle: saline with Tween-80) was 3 of 6.

For the molecule `CC(=O)c1c(C)[nH]c(-c2ccccc2)c1NS(=O)(=O)c1ccc(N)cc1`, the survivor count under setting [7] is reported as 6 of 6.

Regarding `CCCCCC1c2cc(O)ccc2OC1N1CCOCC1` (stereo not given), under setting [8], the survivor count is listed as 5 of 6.

Consider `CS(=O)(=O)c1ncnc2nc[nH]c12`, for which the survivor count is, setting by setting: (dose: 50.0 mg/kg/injection, schedule: Q01DX005 (ip), vehicle: Klucel (hydroxypropylcellulose) (HPC)) 0 of 6; (dose: 100.0 mg/kg/injection, schedule: Q01DX005 (ip), vehicle: Klucel (hydroxypropylcellulose) (HPC)) 0 of 6; (dose: 200.0 mg/kg/injection, schedule: Q01DX005 (ip), vehicle: Klucel (hydroxypropylcellulose) (HPC)) 0 of 6.

As for `CCC(C(=O)Nc1ccccc1-c1ccccc1)c1ccccc1` (stereo not given), the survivor count (dose: 50.0 mg/kg/injection, schedule: Q01DX009 (ip), vehicle: saline) is reported as 6 of 6.

Turning to `NNC(=O)Cc1cccc2ccc(Cl)cc12`, where the note is “dose: 240.0 mg/kg/injection, schedule: Q01DX005 (ip), vehicle: Klucel (hydroxypropylcellulose) (HPC)”, the survivor count is listed as 5 of 6.
